Measurements: PubChem BioAssay AID186 (DTP/NCI, 2004)
The mice bore no tumour; each value counts animals alive of those treated. Counts of survivors are from the toxicity check (mostly the fifth day) where no day follows; animals may have died later. Schedule codes are those of the source, taken here to give the interval after Q, in days (D) or hours (H), and the number of doses after X. Some entries were tested several times; their values stand side by side, smallest first. Counts like (3×) stand for listed records that agree.

Test system: B6D2F1 mice, nontumored toxicity test, survival
Experiment: NCI In Vivo Anticancer Drug Screen. Data for tumor model Nontumored Animals (Toxicity Test) in B6D2F1 (BDF1) mice

COc1cccc2c1C(=O)c1c(O)c3c(c(O)c1C2=O)C[C@@](O)(C(C)=O)C[C@@H]3OC1CC(N)C(O)C(C)O1 (stereo not given in full)
survivor count (dose: 0.25 mg/kg/injection, schedule: Q04DX003 (ip), vehicle: saline): 4 of 4 | survivor count (dose: 0.28 mg/kg/injection, schedule: Q03HX008 (ip), vehicle: water): 6 of 6 | survivor count (dose: 0.47 mg/kg/injection, schedule: Q03HX008 (ip), vehicle: water): 6 of 6 | survivor count (dose: 0.5 mg/kg/injection, schedule: Q01DX009 (ip), vehicle: water): 6 of 6 | survivor count (dose: 0.5 mg/kg/injection, schedule: Q03HX024 (ip), vehicle: water): 6 of 6 | survivor count (dose: 0.5 mg/kg/injection, schedule: Q04DX003 (ip), vehicle: saline): 4 of 4 | survivor count (dose: 0.65 mg/kg/injection, schedule: Q03HX008 (ip), vehicle: water): 8 of 8 | survivor count (dose: 0.78 mg/kg/injection, schedule: Q03HX008 (ip), vehicle: water): 6 of 6 | survivor count (dose: 1.0 mg/kg/injection, schedule: Q01DX009 (ip), vehicle: water): 6 of 6 | survivor count (dose: 1.0 mg/kg/injection, schedule: Q03HX008 (ip), vehicle: water): 6 of 6 | survivor count (dose: 1.0 mg/kg/injection, schedule: Q03HX024 (ip), vehicle: water): 6 of 6 | survivor count (dose: 1.0 mg/kg/injection, schedule: Q04DX003 (ip), vehicle: saline): 4 of 4 | survivor count (dose: 1.08 mg/kg/injection, schedule: Q03HX008 (ip), vehicle: water): 8 of 8 | survivor count (dose: 1.17 mg/kg/injection, schedule: Q03HX008 (ip), vehicle: water): 6 of 6 | survivor count (dose: 1.75 mg/kg/injection, schedule: Q03HX008 (ip), vehicle: water): 2 of 6 | survivor count (dose: 1.75 mg/kg/injection, schedule: Q04DX003 (ip), vehicle: water): 6 of 6 | survivor count (dose: 1.8 mg/kg/injection, schedule: Q03HX008 (ip), vehicle: water): 8 of 8 | survivor count (dose: 2.0 mg/kg/injection, schedule: Q01DX009 (ip), vehicle: water): 6 of 6 | survivor count (dose: 2.0 mg/kg/injection, schedule: Q03HX008 (ip), vehicle: water): 6 of 6 | survivor count (dose: 2.0 mg/kg/injection, schedule: Q03HX024 (ip), vehicle: water): 5 of 6 | survivor count (dose: 2.0 mg/kg/injection, schedule: Q04DX003 (ip), vehicle: saline): 4 of 4 | survivor count (dose: 2.5 mg/kg/injection, schedule: Q01DX001 (ip), vehicle: water): 6 of 6 | survivor count (dose: 2.5 mg/kg/injection, schedule: Q04DX003 (ip), vehicle: water): 6 of 6 | survivor count (dose: 2.6 mg/kg/injection, schedule: Q04DX003 (ip), vehicle: water): 6 of 6 | survivor count (dose: 3.0 mg/kg/injection, schedule: Q03HX008 (ip), vehicle: water): 8 of 8 | survivor count (dose: 3.9 mg/kg/injection, schedule: Q01DX001 (ip), vehicle: water): 6 of 6 | survivor count (dose: 3.9 mg/kg/injection, schedule: Q04DX003 (ip), vehicle: water): 6 of 6 | survivor count (dose: 4.0 mg/kg/injection, schedule: Q03HX008 (ip), vehicle: water): 5 of 6 | survivor count (dose: 5.0 mg/kg/injection, schedule: Q01DX001 (ip), vehicle: water): 10 of 10 and 6 of 6 (2×) | survivor count (dose: 5.0 mg/kg/injection, schedule: Q04DX003 (ip), vehicle: water): 6 of 6 | survivor count (dose: 5.0 mg/kg/injection, schedule: Q08DX002 (ip), vehicle: water): 6 of 6 | survivor count (dose: 5.9 mg/kg/injection, schedule: Q01DX001 (ip), vehicle: water): 6 of 6 | survivor count (dose: 5.9 mg/kg/injection, schedule: Q04DX003 (ip), vehicle: water): 6 of 6 | survivor count (dose: 8.9 mg/kg/injection, schedule: Q01DX001 (ip), vehicle: water): 5 of 6 | survivor count (dose: 8.9 mg/kg/injection, schedule: Q04DX003 (ip), vehicle: water): 6 of 6 | survivor count (dose: 10.0 mg/kg/injection, schedule: Q01DX001 (ip), vehicle: water): 10 of 10 and 6 of 6 (2×) | survivor count (dose: 10.0 mg/kg/injection, schedule: Q04DX003 (ip), vehicle: water): 6 of 6 | survivor count (dose: 10.0 mg/kg/injection, schedule: Q08DX002 (ip), vehicle: water): 6 of 6 | survivor count (dose: 13.3 mg/kg/injection, schedule: Q01DX001 (ip), vehicle: water): 6 of 6 | survivor count (dose: 20.0 mg/kg/injection, schedule: Q01DX001 (ip), vehicle: water): 1 of 10, 4 of 6, 5 of 6, 6 of 6 | survivor count (dose: 20.0 mg/kg/injection, schedule: Q08DX002 (ip), vehicle: water): 6 of 6

CC(=O)NNC(=O)c1ccccn1
survivor count (dose: 4.0 mg/kg/injection, schedule: Q03HX024 (ip), vehicle: saline): 8 of 8 | survivor count (dose: 8.0 mg/kg/injection, schedule: Q03HX008 (ip), vehicle: saline): 8 of 8 | survivor count (dose: 8.0 mg/kg/injection, schedule: Q03HX016 (ip), vehicle: saline): 8 of 8 | survivor count (dose: 8.0 mg/kg/injection, schedule: Q03HX024 (ip), vehicle: saline): 8 of 8 | survivor count (dose: 16.0 mg/kg/injection, schedule: Q01DX012 (ip), vehicle: other): 6 of 6 | survivor count (dose: 16.0 mg/kg/injection, schedule: Q03HX008 (ip), vehicle: saline): 8 of 8 | survivor count (dose: 16.0 mg/kg/injection, schedule: Q03HX016 (ip), vehicle: saline): 8 of 8 | survivor count (dose: 16.0 mg/kg/injection, schedule: Q03HX024 (ip), vehicle: saline): 8 of 8 | survivor count (dose: 32.0 mg/kg/injection, schedule: Q01DX009 (ip), vehicle: saline): 8 of 8 | survivor count (dose: 32.0 mg/kg/injection, schedule: Q01DX009 (oral), vehicle: saline): 7 of 8 | survivor count (dose: 32.0 mg/kg/injection, schedule: Q01DX012 (ip), vehicle: other): 6 of 6 | survivor count (dose: 32.0 mg/kg/injection, schedule: Q03HX008 (ip), vehicle: saline): 8 of 8 | survivor count (dose: 32.0 mg/kg/injection, schedule: Q03HX016 (ip), vehicle: saline): 8 of 8 | survivor count (dose: 32.0 mg/kg/injection, schedule: Q03HX024 (ip), vehicle: saline): 8 of 8 | survivor count (dose: 32.0 mg/kg/injection, schedule: Q04DX003 (ip), vehicle: saline): 8 of 8 | survivor count (dose: 64.0 mg/kg/injection, schedule: Q01DX001 (ip), vehicle: saline): 8 of 8 | survivor count (dose: 64.0 mg/kg/injection, schedule: Q01DX001 (oral), vehicle: saline): 7 of 8 | survivor count (dose: 64.0 mg/kg/injection, schedule: Q01DX009 (ip), vehicle: saline): 8 of 8 | survivor count (dose: 64.0 mg/kg/injection, schedule: Q01DX009 (oral), vehicle: saline): 8 of 8 | survivor count (dose: 64.0 mg/kg/injection, schedule: Q01DX012 (ip), vehicle: other): 6 of 6 | survivor count (dose: 64.0 mg/kg/injection, schedule: Q03HX008 (ip), vehicle: saline): 8 of 8 | survivor count (dose: 64.0 mg/kg/injection, schedule: Q03HX016 (ip), vehicle: saline): 8 of 8 | survivor count (dose: 64.0 mg/kg/injection, schedule: Q03HX024 (ip), vehicle: saline): 8 of 8 | survivor count (dose: 64.0 mg/kg/injection, schedule: Q04DX003 (ip), vehicle: saline): 8 of 8 | survivor count (dose: 64.0 mg/kg/injection, schedule: Q08DX002 (ip), vehicle: saline): 8 of 8 | survivor count (dose: 128.0 mg/kg/injection, schedule: Q01DX001 (ip), vehicle: saline): 8 of 8 | survivor count (dose: 128.0 mg/kg/injection, schedule: Q01DX001 (oral), vehicle: saline): 8 of 8 | survivor count (dose: 128.0 mg/kg/injection, schedule: Q01DX009 (ip), vehicle: saline): 8 of 8 | survivor count (dose: 128.0 mg/kg/injection, schedule: Q01DX009 (oral), vehicle: saline): 7 of 8 | survivor count (dose: 128.0 mg/kg/injection, schedule: Q01DX012 (ip), vehicle: other): 5 of 6 | survivor count (dose: 128.0 mg/kg/injection, schedule: Q04DX003 (ip), vehicle: saline): 8 of 8 | survivor count (dose: 128.0 mg/kg/injection, schedule: Q08DX002 (ip), vehicle: saline): 8 of 8 | survivor count (dose: 256.0 mg/kg/injection, schedule: Q01DX001 (ip), vehicle: saline): 8 of 8 | survivor count (dose: 256.0 mg/kg/injection, schedule: Q01DX001 (oral), vehicle: saline): 8 of 8 | survivor count (dose: 256.0 mg/kg/injection, schedule: Q01DX009 (ip), vehicle: saline): 4 of 8 | survivor count (dose: 256.0 mg/kg/injection, schedule: Q01DX009 (oral), vehicle: saline): 7 of 8 | survivor count (dose: 256.0 mg/kg/injection, schedule: Q04DX003 (ip), vehicle: saline): 8 of 8 | survivor count (dose: 256.0 mg/kg/injection, schedule: Q08DX002 (ip), vehicle: saline): 8 of 8 | survivor count (dose: 512.0 mg/kg/injection, schedule: Q01DX001 (ip), vehicle: saline): 0 of 8 | survivor count (dose: 512.0 mg/kg/injection, schedule: Q01DX001 (oral), vehicle: saline): 0 of 8 | survivor count (dose: 512.0 mg/kg/injection, schedule: Q01DX009 (oral), vehicle: saline): 0 of 8 | survivor count (dose: 512.0 mg/kg/injection, schedule: Q04DX003 (ip), vehicle: saline): 0 of 8 | survivor count (dose: 512.0 mg/kg/injection, schedule: Q08DX002 (ip), vehicle: saline): 0 of 8 | survivor count (dose: 1024.0 mg/kg/injection, schedule: Q01DX001 (oral), vehicle: saline): 0 of 8
